Test results from article PMC9657785.
These are yes or no findings as the source states them, for the method shown. For some assays here: Binding seen in cells or lysates may run through a third protein. Some binding calls cover weakened binding; strength is not graded here.

By UniProt entry, the sequences of proteins in these tests, tags left out.
UniProt Q07812: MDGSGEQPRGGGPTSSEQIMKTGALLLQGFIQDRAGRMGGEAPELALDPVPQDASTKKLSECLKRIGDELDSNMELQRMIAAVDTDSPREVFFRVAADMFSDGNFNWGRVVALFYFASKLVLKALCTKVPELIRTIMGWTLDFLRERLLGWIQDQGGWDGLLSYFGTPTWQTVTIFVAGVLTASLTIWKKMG
UniProt O75317: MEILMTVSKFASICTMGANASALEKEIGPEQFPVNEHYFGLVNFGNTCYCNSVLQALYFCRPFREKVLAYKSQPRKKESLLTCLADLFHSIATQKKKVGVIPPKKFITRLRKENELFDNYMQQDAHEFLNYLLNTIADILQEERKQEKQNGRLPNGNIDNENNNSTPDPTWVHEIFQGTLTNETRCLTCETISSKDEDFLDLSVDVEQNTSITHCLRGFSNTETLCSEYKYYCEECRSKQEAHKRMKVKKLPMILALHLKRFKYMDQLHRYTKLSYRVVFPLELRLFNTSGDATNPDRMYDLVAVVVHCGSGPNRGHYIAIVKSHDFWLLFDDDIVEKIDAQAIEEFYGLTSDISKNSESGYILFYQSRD

Tests used:
[1] = target: Bax, as used in the immunoprecipitation (human (cDNA from HeLa cells)) (UniProt Q07812); assay: co-IP; cell lysates rotated with antibodies at 4 °C overnight, Protein A/G PLUS agarose beads 2 h; lysis buffer 50 mM Tris-HCl pH 7.5, 1 mM EDTA, 10% glycerol, 300 mM NaCl, 1% Triton X-100
[2] = target: ubiquitin-specific protease 12 (USP12), yeast two-hybrid bait (human (cDNA from HeLa cells)) (UniProt O75317); assay: two-hybrid; AH109 yeast; USP family members as bait (-Trp), then pGAD424-Bax; -Leu/-Trp minimal medium plates with 4 mg/mL X-α-gal; blue colonies

“ubiquitin-specific protease 12 (USP12), as used in the immunoprecipitation and GST pull-down (from UniProt O75317 1-370) (enzyme)” was tested, and the binding [1] was “binds”.

In the case of “Bax, yeast two-hybrid prey (pGAD424-Bax) (from UniProt Q07812 1-192)”, the binding [2] is reported as “binds”.
